Experimental findings from PubChem BioAssay AID2685 (National Center for Advancing Translational Sciences (NCATS), 2010) are described below.

As a reminder, the AC50 is the midpoint of the concentration-response curve, whichever way the signal moves. The low end stands for activity at low concentration, the high end for activity only at high concentration.

This is one part of the list. The main result of the screen is listed elsewhere. These columns were measured beside it and carry no call. Compounds called inactive in the main read-out are mostly missing here. Words in brackets tell the shape of the fitted curve; partial curves, single points and poor fits give uncertain potencies.

A short description of the experiment: qHTS Assay for Lipid Storage Modulators in Drosophila S3 Cells.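 As to cell number change: cells counted by Cell Tracker Red CMTPX staining in the red channel.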 Conditions: BODIPY lipid droplet fluorescence, 18-24 h; for cell number change: measured here: cell count max response, cells fed with added oleic acid. In a few lines:
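Laser-scanning cytometry quantifies lipid droplet accumulation (500–530 nm total intensity; droplet/cell object ratio) in oleic acid-fed (400 uM added) Drosophila S3 cells treated with a concentration series. 20 uM Triacsin C defined 100% inhibition.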
(Quantitative high-throughput screening tests each substance at several concentrations.)

The mark [1] stands for this setting: measured here: cell number channel AC50, cells fed with added oleic acid.
[2] abbreviates: measured here: lipid fluorescence (Fed channel) AC50, cells fed with added oleic acid.

As to `CCOc1ccc(N(C(C)C(=O)NCc2ccco2)S(C)(=O)=O)cc1` (stereo not given), the cell number change is 76.1%. Further, the AC50 under setting [1] is 18.4 µM [rising, partial curve].
Take `Cn1c(-c2ccc(Cl)nc2)nc2cc(Cl)ccc21`: the cell number change was -19.8%. In addition, the AC50 under setting [2] is 1.46 µM [falling, partial curve].
Regarding `COc1cccc(NC(=O)Cc2cccs2)c1`, the cell number change is -3.52%. For the same compound, the concentration at half-maximal activity (AC50) under setting [2] was 0.00517 µM [falling, full curve, poor fit].
With `CCN1C(=O)c2cccc3c(S(=O)(=O)Nc4ccc(OC)cc4OC)ccc1c23`, the cell number change was -29%. For the same compound, the half-maximal activity concentration (AC50) under setting [1] is 2.91 µM [falling, full curve, poor fit]. The concentration at half-maximal activity (AC50) under setting [2] is 5.8 µM [falling, full curve].
As to `O=C(CSc1nc2ccccc2c(=O)n1CC1CCCO1)NCc1ccccc1` (stereo not given), the cell number change is -34.3%. In addition, the AC50 under setting [2] was 29.1 µM [falling, partial curve].
Regarding `Cn1c(CCC(=O)O)nc2cc(S(=O)(=O)N3CCCCC3)ccc21`, the cell number change was -8.41%.
For the compound `O=C(COC(=O)c1ccc(Cl)c(S(=O)(=O)N2CCCCCC2)c1)Nc1ccccc1`, the cell number change worked out at 1.63%. Moreover, the AC50 under setting [2] is 29.1 µM [falling, single point].
Regarding `CCOC(=O)c1ccccc1NC(=O)c1cccnc1`, the cell number change was -36.5%. Further, under setting [1], the AC50 is 9.2 µM [falling, partial curve, poor fit].
With `COc1cccc(NC(=O)CN(C)CC(=O)c2c(C)[nH]c3ccccc23)c1`, the cell number change amounted to 7.66%. Further, the AC50 under setting [2] is 29.1 µM [falling, single point].
In the case of `C=CCN(C(=O)c1csnn1)C(C(=O)NCc1ccccc1)c1cccs1` (stereo not given), the cell number change was -32.4%. Under setting [1], the AC50 is 14.6 µM [falling, partial curve, poor fit]. For the same compound, under setting [2], the AC50 was 6.51 µM [rising, single point].
Regarding `CC1(C)Cc2c(cnn2-c2cccc(F)c2)C(NC(=O)CSc2ccncc2)C1` (stereo not given), the cell number change was 29.1%. The AC50 under setting [2] is 29.1 µM [rising, partial curve, poor fit].
As to `COC(=O)c1[nH]c2ccccc2c1NC(=O)CN1CC(C)OC(C)C1` (stereo not given), the cell number change was -11.2%. Further, the concentration at half-maximal activity (AC50) under setting [2] was 23.1 µM [rising, single point].
Take `CCCCCN1C=CC=C/C1=C\C=C(C#N)C#N`: the cell number change came out at 2.25%. Further, the AC50 under setting [2] was 25.9 µM [falling, single point].
On to `Cn1c(=O)c2c(nc(N3CCCC3)n2CC(O)CO)n(C)c1=O` (stereo not given), for which the cell number change is -15.2%. The concentration at half-maximal activity (AC50) under setting [1] was 0.0517 µM [falling, full curve, poor fit]. In addition, the AC50 under setting [2] was 25.9 µM [falling, partial curve].
Consider `CC1(C)C2CCC1(CS(=O)(=O)NC(CC(=O)O)c1cccc(Br)c1)C(=O)C2` (stereo not given), for which the cell number change came to 5.56%. Besides, the AC50 under setting [2] was 29.1 µM [rising, single point].
As to `CCN1CCN(c2cc(C)c3cc(NC(=O)c4ccc(OC)c(OC)c4)ccc3n2)CC1`, the cell number change is -20.8%. Under setting [2], the half-maximal activity concentration (AC50) is 6.51 µM [rising, full curve].
Turning to `CCCCNC(=O)COC(=O)c1ccc(SC)cc1OC`, the cell number change came out at 95.1%.
Regarding `COC(=O)c1ccccc1OCC(=O)N1CCN(c2ccc(F)cc2)CC1`, the cell number change is 20.4%. Further, the AC50 under setting [2] was 29.1 µM [rising, single point].
As to `CCc1cc2c(SCc3nc4sc(C(C)=O)c(C)c4c(=O)[nH]3)ncnc2s1`, the cell number change is 31.2%. Also, the AC50 under setting [1] was 0.00461 µM [rising, full curve, poor fit]. Moreover, the AC50 under setting [2] was 1.84 µM [rising, partial curve, poor fit].
Consider `Cc1ccc(C)c(OCc2ccc(C(=O)N3N=C(C(F)F)CC3(O)C(F)F)o2)c1` (stereo not given), for which the cell number change was -80.4%. Further, the half-maximal activity concentration (AC50) under setting [1] is 20.6 µM [falling, partial curve]. Under setting [2], the concentration at half-maximal activity (AC50) is 10.3 µM [falling, partial curve].
As for `Cc1ccc(S(=O)(=O)NCCC(=O)N2CCC(C)CC2)cc1`, the cell number change was found to be 5.89%. Also, the AC50 under setting [2] was 29.1 µM [falling, single point].
In the case of `O=C(O)c1ccc(CN2C(=O)c3ccccc3S2(=O)=O)cc1`, the cell number change was -49.7%. The AC50 under setting [1] is 29.1 µM [falling, single point]. Further, the half-maximal activity concentration (AC50) under setting [2] is 0.00461 µM [falling, full curve, poor fit].
Turning to `O=C(Nc1ccc(F)cc1)c1nc[nH]c1C(=O)Nc1ccccc1[N+](=O)[O-]`, the cell number change is -10.3%. Moreover, the concentration at half-maximal activity (AC50) under setting [2] was 0.00461 µM [falling, full curve, poor fit].
`COc1cccc(C2SCC(=O)N2c2cccc(C)c2)c1OC` (stereo not given): the cell number change is -3.01%. Besides, the AC50 under setting [1] was 0.651 µM [falling, single point]. Further, the AC50 under setting [2] is 9.2 µM [rising, partial curve].
In the case of `COc1cc(OC)cc(C(=O)NNC(=O)c2cc(S(=O)(=O)N3CCOCC3)ccc2F)c1`, the cell number change was -4.02%. Further, under setting [2], the half-maximal activity concentration (AC50) was 29.1 µM [rising, single point].
For `CCN(CC)CC(O)CN1c2ccccc2Sc2ccccc21` (stereo not given), the half-maximal activity concentration (AC50) under setting [1] is 6.51 µM [rising, single point].
As for `C=CCNC(=O)C1CCC(=O)N1S(=O)(=O)c1ccc(C)cc1` (stereo not given), the cell number change is 7.67%. Under setting [1], the AC50 is 0.00411 µM [rising, full curve, poor fit].
As for `CCn1c(CNC(=O)c2ccc(Cl)cc2)nnc1SCC(=O)N1CCOCC1`, the cell number change is 5.41%. The AC50 under setting [2] was 2.31 µM [falling, full curve].
For `O=C(NCC1CCN(c2ccc(S(=O)(=O)N3CCOCC3)cc2)CC1)Nc1ccccc1`, the cell number change was -10.5%. Moreover, the AC50 under setting [2] is 35.5 µM [falling, single point].
With `COc1ccc(C)cc1Nc1nc(N)c2cc(OC)c(OC)cc2n1`, the cell number change is -13.9%. In addition, the AC50 under setting [2] is 6.51 µM [falling, single point].
For the compound `COCc1cc(C)nc(SCc2ccccc2)c1C#N`, the cell number change is -11.7%. In addition, the half-maximal activity concentration (AC50) under setting [2] is 2.91 µM [rising, single point].
As for `CCOc1cc(C(=O)Nc2cc(F)ccc2C)ccc1OCC(=O)N1CCOCC1`, the cell number change was -4.69%. Under setting [2], the concentration at half-maximal activity (AC50) is 0.184 µM [falling, full curve, poor fit].
On to `O=C1c2ccc(Cl)cc2S(=O)(=O)c2cccc(C(=O)N3CCN(c4ccc(Cl)cn4)CC3)c21`, for which the cell number change is -30.8%. The concentration at half-maximal activity (AC50) under setting [1] is 20.6 µM [falling, partial curve, poor fit].
Take `COc1ccc(N2CCN(Cc3nc4scc(-c5cccs5)c4c(=O)[nH]3)CC2)cc1`: the cell number change is 54.4%. The AC50 under setting [2] was 29.1 µM [rising, partial curve, poor fit].
In the case of `Cc1ccc(S(=O)(=O)Nc2ccc(-c3nc4ccc(C)cc4s3)cc2)cc1`, the cell number change was -46%. Besides, the half-maximal activity concentration (AC50) under setting [1] is 1.16 µM [falling, full curve, poor fit]. The AC50 under setting [2] is 23.1 µM [falling, single point].
